Compound in the assay: CC1Cc2ccccc2N1C(=O)C1CCCN(C1)C(=O)CCl (mixture of isomers) [TRIM25 ligand 11 (diastereomer mixture)]
Briefly: probe-labelled cysteine peptide fold change vs DMSO (competition) (log2 fold change); higher = less target engagement (more negative = stronger competition). To be noted: THP-1, incubation time: 4 h.

Chains of the proteins cited; added tags and fusions are not shown. Lines headed by an entry give the natural chain unless they say otherwise; changes in a name come on top.
UniProt P07919: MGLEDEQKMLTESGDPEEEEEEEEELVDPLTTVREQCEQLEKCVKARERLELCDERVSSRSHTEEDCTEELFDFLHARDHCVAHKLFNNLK
UniProt Q9H3U1: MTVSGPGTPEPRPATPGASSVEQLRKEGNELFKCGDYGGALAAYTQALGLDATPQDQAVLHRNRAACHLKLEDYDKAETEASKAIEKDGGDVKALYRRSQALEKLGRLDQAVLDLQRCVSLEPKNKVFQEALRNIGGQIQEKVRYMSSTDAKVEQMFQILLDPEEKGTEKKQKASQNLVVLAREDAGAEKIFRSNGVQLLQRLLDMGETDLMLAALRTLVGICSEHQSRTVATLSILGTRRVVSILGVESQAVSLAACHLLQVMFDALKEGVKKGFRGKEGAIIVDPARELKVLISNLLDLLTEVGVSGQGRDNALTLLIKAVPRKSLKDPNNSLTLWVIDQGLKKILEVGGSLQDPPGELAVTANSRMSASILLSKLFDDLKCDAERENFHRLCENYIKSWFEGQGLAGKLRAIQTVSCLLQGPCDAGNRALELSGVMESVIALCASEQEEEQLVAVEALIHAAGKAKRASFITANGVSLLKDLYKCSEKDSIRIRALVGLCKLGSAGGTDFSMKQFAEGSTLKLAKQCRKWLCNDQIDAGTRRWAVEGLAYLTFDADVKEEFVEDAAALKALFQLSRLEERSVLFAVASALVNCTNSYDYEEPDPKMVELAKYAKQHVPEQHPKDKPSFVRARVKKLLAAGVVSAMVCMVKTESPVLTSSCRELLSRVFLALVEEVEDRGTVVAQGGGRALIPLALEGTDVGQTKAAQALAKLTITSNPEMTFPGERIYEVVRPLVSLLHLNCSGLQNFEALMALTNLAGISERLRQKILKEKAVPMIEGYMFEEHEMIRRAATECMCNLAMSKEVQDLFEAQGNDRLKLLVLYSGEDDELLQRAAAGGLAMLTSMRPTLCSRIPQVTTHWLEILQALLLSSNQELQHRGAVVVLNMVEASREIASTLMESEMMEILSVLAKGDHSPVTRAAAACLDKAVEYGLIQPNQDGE
UniProt O94874: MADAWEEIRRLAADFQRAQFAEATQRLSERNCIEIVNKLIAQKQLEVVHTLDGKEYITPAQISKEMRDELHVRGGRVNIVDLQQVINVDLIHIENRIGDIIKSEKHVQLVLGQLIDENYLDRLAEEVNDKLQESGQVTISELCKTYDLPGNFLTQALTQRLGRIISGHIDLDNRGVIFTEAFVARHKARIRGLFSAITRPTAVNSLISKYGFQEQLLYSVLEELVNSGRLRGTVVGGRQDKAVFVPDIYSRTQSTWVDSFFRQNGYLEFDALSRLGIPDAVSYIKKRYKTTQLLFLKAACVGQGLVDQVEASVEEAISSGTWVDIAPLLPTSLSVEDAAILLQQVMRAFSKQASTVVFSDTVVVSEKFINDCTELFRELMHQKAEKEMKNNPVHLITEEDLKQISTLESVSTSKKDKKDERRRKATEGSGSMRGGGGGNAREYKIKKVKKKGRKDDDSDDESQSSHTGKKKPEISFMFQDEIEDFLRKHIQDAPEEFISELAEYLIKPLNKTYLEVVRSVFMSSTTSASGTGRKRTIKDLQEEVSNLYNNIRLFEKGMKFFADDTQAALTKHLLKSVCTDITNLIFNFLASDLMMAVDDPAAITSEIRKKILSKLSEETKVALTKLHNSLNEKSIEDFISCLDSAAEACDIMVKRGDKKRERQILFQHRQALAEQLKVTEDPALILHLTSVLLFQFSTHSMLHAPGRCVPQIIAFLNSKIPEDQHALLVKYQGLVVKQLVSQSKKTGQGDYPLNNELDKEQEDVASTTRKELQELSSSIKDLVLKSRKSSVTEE
UniProt Q96PU4: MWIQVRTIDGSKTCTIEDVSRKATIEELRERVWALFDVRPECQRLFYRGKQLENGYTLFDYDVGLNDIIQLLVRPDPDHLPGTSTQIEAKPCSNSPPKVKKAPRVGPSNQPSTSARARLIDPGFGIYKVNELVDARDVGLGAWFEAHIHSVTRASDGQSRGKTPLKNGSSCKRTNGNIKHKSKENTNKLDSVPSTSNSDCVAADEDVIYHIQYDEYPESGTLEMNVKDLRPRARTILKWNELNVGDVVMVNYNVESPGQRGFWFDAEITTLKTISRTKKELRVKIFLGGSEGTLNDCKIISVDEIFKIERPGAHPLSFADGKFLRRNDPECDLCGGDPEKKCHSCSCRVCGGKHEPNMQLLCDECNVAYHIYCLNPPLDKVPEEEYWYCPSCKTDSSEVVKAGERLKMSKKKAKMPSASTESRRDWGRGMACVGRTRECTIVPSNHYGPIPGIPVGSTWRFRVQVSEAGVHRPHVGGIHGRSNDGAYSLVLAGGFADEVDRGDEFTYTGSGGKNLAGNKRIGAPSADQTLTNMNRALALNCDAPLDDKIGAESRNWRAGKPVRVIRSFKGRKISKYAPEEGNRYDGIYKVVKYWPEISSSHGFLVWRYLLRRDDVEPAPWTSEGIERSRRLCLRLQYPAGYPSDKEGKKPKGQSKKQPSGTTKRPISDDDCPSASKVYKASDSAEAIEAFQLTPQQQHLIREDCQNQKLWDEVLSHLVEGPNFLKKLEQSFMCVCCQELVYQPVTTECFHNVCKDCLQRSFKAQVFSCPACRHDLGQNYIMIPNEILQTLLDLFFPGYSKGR
UniProt Q8WUN7: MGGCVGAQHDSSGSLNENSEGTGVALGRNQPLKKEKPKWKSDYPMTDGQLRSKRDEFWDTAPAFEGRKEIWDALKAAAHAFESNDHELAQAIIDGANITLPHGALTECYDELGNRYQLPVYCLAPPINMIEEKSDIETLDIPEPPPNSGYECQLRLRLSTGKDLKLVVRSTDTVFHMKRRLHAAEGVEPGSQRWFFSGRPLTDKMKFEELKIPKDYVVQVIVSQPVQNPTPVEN
UniProt P35125: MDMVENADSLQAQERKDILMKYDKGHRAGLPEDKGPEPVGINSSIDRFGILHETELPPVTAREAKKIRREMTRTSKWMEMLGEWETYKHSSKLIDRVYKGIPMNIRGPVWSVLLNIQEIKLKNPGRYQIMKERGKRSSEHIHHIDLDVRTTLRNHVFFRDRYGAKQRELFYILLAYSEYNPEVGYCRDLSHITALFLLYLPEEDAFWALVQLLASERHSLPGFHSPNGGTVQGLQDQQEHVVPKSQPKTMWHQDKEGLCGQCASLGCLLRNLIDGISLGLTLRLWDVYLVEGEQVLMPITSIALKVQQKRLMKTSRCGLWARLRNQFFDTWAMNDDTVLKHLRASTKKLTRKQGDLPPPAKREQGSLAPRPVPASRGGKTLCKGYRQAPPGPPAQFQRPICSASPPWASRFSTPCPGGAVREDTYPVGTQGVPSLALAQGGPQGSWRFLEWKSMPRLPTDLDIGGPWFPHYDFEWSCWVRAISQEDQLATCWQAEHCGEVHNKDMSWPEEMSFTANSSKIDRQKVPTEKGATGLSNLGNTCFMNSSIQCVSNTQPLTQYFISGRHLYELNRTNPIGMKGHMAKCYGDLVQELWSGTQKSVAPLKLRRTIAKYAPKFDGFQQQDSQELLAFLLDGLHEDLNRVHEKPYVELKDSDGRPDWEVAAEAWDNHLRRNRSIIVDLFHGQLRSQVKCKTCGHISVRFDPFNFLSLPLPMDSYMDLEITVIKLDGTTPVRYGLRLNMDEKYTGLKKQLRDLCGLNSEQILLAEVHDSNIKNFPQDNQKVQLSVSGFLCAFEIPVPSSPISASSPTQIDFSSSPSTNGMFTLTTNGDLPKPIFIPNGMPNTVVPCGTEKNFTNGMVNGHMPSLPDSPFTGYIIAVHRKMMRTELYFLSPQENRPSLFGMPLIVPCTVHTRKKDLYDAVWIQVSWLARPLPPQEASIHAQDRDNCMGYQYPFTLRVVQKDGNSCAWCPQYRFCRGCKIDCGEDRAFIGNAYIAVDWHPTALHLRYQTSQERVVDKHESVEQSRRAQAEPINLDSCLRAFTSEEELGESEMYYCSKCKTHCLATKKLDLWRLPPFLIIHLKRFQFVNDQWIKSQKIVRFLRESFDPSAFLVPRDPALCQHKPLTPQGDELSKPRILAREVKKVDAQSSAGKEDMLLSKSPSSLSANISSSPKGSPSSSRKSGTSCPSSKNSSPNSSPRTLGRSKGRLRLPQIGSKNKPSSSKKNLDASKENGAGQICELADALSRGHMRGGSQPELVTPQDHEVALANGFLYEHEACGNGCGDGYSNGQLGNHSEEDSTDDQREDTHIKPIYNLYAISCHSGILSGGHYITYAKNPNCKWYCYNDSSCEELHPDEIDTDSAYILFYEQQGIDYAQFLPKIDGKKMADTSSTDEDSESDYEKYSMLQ
UniProt O94966: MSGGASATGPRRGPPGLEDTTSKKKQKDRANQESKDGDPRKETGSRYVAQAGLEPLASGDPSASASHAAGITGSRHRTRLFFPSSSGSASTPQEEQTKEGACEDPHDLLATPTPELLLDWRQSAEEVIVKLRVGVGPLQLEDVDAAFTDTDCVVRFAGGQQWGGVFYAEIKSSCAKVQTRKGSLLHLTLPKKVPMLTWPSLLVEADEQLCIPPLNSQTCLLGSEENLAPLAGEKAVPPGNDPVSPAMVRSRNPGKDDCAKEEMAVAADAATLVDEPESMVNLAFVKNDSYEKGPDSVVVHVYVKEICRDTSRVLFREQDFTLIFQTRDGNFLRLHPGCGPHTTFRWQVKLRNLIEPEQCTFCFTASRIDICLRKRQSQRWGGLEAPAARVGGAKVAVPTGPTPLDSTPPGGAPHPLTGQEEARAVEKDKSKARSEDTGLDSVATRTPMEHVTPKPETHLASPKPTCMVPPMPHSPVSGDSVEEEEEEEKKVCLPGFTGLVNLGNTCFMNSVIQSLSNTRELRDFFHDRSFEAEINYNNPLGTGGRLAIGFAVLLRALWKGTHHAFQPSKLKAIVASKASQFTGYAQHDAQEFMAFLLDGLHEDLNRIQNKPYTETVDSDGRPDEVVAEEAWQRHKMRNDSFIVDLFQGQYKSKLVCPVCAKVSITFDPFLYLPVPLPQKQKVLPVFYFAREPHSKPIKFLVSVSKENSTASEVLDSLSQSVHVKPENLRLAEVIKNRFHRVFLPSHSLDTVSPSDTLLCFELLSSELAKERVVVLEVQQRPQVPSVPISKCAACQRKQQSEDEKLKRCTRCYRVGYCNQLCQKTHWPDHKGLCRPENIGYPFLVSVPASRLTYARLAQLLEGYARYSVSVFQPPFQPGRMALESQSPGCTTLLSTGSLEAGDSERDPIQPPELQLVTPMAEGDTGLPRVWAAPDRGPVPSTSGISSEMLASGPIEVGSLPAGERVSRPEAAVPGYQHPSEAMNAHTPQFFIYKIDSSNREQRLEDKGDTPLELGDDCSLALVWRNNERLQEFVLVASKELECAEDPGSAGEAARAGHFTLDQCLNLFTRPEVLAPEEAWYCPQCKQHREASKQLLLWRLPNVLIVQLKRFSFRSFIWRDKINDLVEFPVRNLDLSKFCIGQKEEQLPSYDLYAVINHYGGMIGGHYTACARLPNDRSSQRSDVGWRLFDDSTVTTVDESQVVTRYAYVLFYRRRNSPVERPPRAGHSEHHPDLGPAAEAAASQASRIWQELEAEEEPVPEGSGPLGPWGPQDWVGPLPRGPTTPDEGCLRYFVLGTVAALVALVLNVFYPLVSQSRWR
UniProt Q9Y6I4: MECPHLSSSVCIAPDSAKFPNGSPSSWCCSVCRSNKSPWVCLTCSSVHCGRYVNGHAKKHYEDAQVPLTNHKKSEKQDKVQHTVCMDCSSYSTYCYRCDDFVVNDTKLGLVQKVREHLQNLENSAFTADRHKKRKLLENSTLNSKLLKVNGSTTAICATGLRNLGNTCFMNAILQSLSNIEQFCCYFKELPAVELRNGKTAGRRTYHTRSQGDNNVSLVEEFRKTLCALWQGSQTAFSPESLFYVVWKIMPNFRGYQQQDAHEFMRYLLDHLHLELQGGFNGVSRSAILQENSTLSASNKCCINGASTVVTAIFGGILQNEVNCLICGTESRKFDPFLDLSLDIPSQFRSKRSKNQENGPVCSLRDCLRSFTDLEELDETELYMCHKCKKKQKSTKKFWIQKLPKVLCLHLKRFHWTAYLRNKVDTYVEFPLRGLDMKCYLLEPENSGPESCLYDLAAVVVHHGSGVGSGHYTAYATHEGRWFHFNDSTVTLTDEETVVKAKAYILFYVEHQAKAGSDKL

Some of the results follow.
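Further: competitive chemoproteomic profiling in live THP-1 cells with an iodoacetamide desthiobiotin (IA-DTB) probe, comparing probe-labelled peptide intensities in compound-treated cells against DMSO-treated controls.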

Turning to “USP24_Q9UPU5_179_CMPEAFKK (UniProt Q9UPU5)”, the “probe-labelled cysteine peptide fold change” value by setting is: (10 µM) -0.126; (50 µM) -0.146.
“UQCRH_P07919_53_ERLELCDER (UniProt P07919)”: the “probe-labelled cysteine peptide fold change” value by setting is: (10 µM) -0.262; (50 µM) -0.353.
Taken in the same sequence, the figures for “UNC45A_Q9H3U1_800_AATECMCNLAMSK (UniProt Q9H3U1)” were -0.0369 and -0.147.
For “UFL1_O94874_32_NCIEIVNK (UniProt O94874)”, in that order: 0.1 and 0.0491.
As to “UHRF2_Q96PU4_297_IFLGGSEGTLNDCK (UniProt Q96PU4)”, the “probe-labelled cysteine peptide fold change” value is, setting by setting: (10 µM) 0.0481; (50 µM) 0.267.
Taken in the same sequence, the figures for “UBTF_P17480_33_WSQEDMLTLLECMK (UniProt P17480)” were 0.0726 and -0.0605.
Consider “USP25_Q9UHP3_551_HITEEELSVLESCLHR (UniProt Q9UHP3)”, for which the “probe-labelled cysteine peptide fold change” value by setting is: (10 µM) 0.0068; (50 µM) 0.00453.
In the case of “URGCP_Q8TCY9_292_QWDCFWHR (UniProt Q8TCY9)”, the “probe-labelled cysteine peptide fold change” value by setting is: (10 µM) 0.118; (50 µM) 0.15.
For “UBTD2_Q8WUN7_152_SDIETLDIPEPPPNSGYECQLR (UniProt Q8WUN7)”, in that order: 0.131 and 0.153.
For “USP6_P35125_584_CYGDLVQELWSGTQK (UniProt P35125)”, in that order: 0.0718 and 0.0421.
Turning to “USP19_O94966_102_EGACEDPHDLLATPTPELLLDWR (UniProt O94966)”, the “probe-labelled cysteine peptide fold change” value runs as follows: (10 µM) -0.0514; (50 µM) -0.155.
As to “USP10_Q14694_94_TPSYSISSTLNPQAPEFILGCTASK (UniProt Q14694)”, the “probe-labelled cysteine peptide fold change” value is, setting by setting: (10 µM) -0.275; (50 µM) -0.0814.
Taken in the same sequence, the figures for “URB1_O60287_226_EFIPCIFSSGIKEDR (UniProt O60287)” were 0.157 and 0.121.
For “USP40_Q9NVE5_1054_RIEICLEPLQK (UniProt Q9NVE5)”, in that order: -0.132 and -0.0534.
Take “UCHL5_Q9Y5K5_100_QVINNACATQAIVSVLLNCTHQDVHLGETLSEFK (UniProt Q9Y5K5)”: the “probe-labelled cysteine peptide fold change” value (10 µM) turned out to be 0.0354 and the “probe-labelled cysteine peptide fold change” value (50 µM) was -0.242.
Taken in the same sequence, the figures for “UBR7_Q8N806_82_QALYACSTCTPEGEEPAGICLACSYECHGSHK (UniProt Q8N806)” were 0.182 and -0.386.
“USP3_Q9Y6I4_385_SFTDLEELDETELYMCHK (UniProt Q9Y6I4)”: the “probe-labelled cysteine peptide fold change” value (10 µM) was 0.00344 and the “probe-labelled cysteine peptide fold change” value (50 µM) was -0.0741.

These data come from the supplement of paper PMC12067093, “Discovery and optimisation of a covalent ligand for TRIM25 and its application to targeted protein ubiquitination” (Chemical Science, 2025).
